## Percent effect of library compounds

Chains of the proteins cited; added tags and fusions are not shown.
UniProt I6X8D2, whole entry: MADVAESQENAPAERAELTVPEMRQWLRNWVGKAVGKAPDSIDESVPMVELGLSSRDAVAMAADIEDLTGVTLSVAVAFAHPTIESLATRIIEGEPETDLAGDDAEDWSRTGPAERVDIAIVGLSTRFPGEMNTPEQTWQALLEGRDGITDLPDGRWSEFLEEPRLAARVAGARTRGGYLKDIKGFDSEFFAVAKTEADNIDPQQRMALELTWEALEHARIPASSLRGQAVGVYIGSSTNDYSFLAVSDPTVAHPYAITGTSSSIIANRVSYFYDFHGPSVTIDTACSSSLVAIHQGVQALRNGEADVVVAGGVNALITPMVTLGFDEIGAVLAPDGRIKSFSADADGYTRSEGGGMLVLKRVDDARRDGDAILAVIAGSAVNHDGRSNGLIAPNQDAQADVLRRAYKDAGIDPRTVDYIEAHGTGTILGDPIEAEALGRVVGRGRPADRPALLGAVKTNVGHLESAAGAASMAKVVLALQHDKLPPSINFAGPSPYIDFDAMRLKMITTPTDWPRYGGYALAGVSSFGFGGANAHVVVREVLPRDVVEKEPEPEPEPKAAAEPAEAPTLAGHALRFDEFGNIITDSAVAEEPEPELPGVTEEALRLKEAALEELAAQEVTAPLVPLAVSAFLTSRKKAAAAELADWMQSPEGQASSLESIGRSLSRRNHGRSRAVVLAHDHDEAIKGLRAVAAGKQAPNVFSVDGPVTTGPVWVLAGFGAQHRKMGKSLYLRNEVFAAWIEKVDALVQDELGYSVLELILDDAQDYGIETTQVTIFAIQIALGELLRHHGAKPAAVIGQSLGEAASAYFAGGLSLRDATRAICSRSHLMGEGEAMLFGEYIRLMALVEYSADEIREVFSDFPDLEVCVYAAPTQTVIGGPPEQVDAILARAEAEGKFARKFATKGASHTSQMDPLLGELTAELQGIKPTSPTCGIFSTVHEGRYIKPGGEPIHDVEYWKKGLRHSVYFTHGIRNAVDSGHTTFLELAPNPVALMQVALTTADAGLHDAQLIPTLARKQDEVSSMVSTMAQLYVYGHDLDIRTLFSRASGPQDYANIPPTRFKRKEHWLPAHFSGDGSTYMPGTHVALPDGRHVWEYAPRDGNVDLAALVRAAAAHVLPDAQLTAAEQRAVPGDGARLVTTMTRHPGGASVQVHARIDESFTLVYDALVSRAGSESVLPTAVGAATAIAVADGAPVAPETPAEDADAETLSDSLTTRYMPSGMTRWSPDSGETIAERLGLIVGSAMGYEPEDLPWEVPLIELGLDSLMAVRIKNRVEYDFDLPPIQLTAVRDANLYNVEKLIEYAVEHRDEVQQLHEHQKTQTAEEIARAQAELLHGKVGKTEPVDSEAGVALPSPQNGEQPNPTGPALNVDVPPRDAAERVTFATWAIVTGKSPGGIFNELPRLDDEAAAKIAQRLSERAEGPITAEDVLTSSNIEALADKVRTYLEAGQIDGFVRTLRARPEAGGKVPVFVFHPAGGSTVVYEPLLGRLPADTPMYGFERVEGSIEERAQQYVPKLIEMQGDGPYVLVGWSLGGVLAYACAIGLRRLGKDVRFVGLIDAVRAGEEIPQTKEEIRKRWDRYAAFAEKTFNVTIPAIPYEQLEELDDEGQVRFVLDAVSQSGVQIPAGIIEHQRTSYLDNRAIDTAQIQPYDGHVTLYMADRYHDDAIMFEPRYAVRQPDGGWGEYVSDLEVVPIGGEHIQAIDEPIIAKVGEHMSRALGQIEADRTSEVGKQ
UniProt P9WNZ1, whole entry: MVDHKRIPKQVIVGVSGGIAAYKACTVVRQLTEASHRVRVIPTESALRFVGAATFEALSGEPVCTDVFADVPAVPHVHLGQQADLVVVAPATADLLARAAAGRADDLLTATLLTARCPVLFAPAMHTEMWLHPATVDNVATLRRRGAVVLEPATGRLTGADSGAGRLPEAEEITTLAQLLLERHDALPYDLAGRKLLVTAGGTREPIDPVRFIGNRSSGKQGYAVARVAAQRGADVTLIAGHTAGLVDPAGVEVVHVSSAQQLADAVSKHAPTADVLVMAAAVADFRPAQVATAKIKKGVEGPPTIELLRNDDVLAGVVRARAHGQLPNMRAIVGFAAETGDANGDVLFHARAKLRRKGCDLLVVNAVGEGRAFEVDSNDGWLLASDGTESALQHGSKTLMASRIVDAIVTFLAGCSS
UniProt P9WPC5, whole entry: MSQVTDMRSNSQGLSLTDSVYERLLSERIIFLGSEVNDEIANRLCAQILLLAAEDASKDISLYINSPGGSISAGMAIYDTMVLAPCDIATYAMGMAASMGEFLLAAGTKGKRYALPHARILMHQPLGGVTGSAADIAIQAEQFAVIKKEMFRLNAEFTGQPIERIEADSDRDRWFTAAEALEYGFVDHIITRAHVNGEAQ
UniProt P9WPC3, whole entry partner: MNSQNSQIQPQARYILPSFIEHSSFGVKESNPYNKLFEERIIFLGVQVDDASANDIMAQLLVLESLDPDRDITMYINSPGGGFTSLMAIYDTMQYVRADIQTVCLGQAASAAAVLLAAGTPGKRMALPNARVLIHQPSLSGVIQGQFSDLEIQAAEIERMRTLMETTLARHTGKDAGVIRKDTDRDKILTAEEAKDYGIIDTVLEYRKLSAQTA
UniProt P9WFT3, whole entry: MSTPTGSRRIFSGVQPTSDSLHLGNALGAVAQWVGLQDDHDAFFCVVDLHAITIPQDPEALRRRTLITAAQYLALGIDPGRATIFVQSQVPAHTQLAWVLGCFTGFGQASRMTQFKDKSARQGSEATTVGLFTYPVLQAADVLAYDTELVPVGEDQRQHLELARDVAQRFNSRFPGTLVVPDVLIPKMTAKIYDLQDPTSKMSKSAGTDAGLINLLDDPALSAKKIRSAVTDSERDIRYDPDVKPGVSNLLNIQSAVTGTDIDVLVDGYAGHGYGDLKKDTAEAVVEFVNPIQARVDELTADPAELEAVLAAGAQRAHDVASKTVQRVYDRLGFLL

Measurements from “University of Dundee, Small-Polar-MMV Screening Library” (2021), ChEMBL document CHEMBL3988442.

Pks13 thioesterase: 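Enzyme assay of the thioesterase domain of polyketide synthase 13; the read-out is not stated. Target: Polyketide synthase Pks13, Mycobacterium tuberculosis (UniProt I6X8D2). Tested at 30 µM. Higher reads as stronger inhibition (inferred from which compounds were picked for retests). Size under these conditions: about 67,000 compounds, about 300 of them at 50% or above in at least one test.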
Toxoplasma: 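Assay of Toxoplasma gondii numbers, read through their beta-galactosidase reporter with a colour substrate. Tested at 10 µM. The record gives no direction; the compounds picked for IC50 retests had high values, so higher reads as fewer parasites. Size under these conditions: about 67,000 compounds, about 260 of them at 50% or above in at least one test.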
CoaBC: 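Enzyme assay of CoaBC with a phosphate dye (Biomol Green) read at 650 nm. Target: Coenzyme A biosynthesis protein CoaBC, Mycobacterium tuberculosis (UniProt P9WNZ1). Concentration: 30 µM. Higher reads as stronger inhibition, judged from the few compounds that gave an IC50. Most strong results did not repeat in a second test. Of about 67,000 compounds tested this way, about 40 (0.06%) reached 50% or more in at least one test.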
ClpP1P2: 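Protease assay of ClpP1P2, read by the AMC dye that it sets free. Target: ClpP1P2, Mycobacterium tuberculosis (UniProt P9WPC5 and UniProt P9WPC3). Compounds at 50 µM. Direction is inferred from only a few compounds that gave an IC50; most scored high, so higher reads as stronger inhibition. Most other retested compounds had strongly negative values. About 69,000 compounds were tested under these conditions; 0.015% (about 10) showed 50% or more at least once.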
Leishmania in macrophages: 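Cell assay of Leishmania donovani living inside macrophages; the read-out is not stated. Tested at 30 µM. Direction is inferred from retests: higher values go with stronger inhibition. Size under these conditions: about 69,000 compounds, about 1,000 of them at 50% or above in at least one test.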
MtTrpRS: 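Enzyme assay of tryptophanyl-tRNA synthetase; the read-out is not stated. Target: Tryptophan-tRNA ligase, Mycobacterium tuberculosis (UniProt P9WFT3). Compounds at 10 µM. Direction is not recorded; retested compounds ran higher, which suggests that high means inhibition. About 65,000 compounds were tested under these conditions; 0.098% (about 64) showed 50% or more at least once.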

The filed quantity is “Percent Effect” (%). How 0% and 100% were set is not recorded. Most values in the screen are low, and negative values occur. Compounds were drawn at random from those tested, without regard to their results. Two or more numbers in one place are separate tests of the same structure; such repeats can differ widely.

{"compound": "Cc1ccc(CNCCC(O)(c2nccn2C)C(F)(F)F)o1", "stereo": "stereo not given", "Pks13 thioesterase": -28.97, "Toxoplasma": 0.947, "CoaBC": 3.74, "ClpP1P2": 4.631, "Leishmania in macrophages": 13.02, "MtTrpRS": -5.133}
{"compound": "CC(C)COCc1cncc2c1CCN(C(=O)c1cscn1)C2", "CoaBC": 1.856, "ClpP1P2": 3.078}
{"compound": "CCC(=O)N1CCC(c2nnc(Cn3cccn3)n2C2CC2)CC1", "Pks13 thioesterase": -14.15, "Toxoplasma": -4.653, "CoaBC": 5.907, "ClpP1P2": -2.418, "Leishmania in macrophages": 18.33, "MtTrpRS": -3.981}
{"compound": "O=C(CCO)N1CCOC2(CCCN(C(=O)c3ccco3)C2)C1", "stereo": "stereo not given", "Pks13 thioesterase": -13.07, "Toxoplasma": 7.682, "CoaBC": 1.818, "ClpP1P2": -5.222, "Leishmania in macrophages": -4.275, "MtTrpRS": -0.2486}
{"compound": "CCc1ccc(OCCN(C)C(=O)c2ccncc2Cl)cc1", "Pks13 thioesterase": -24.68, "Toxoplasma": -8.834, "CoaBC": 4.637, "ClpP1P2": -7.645, "Leishmania in macrophages": 5.109, "MtTrpRS": -1.615}
{"compound": "O=C(NCCN1CCOCC1)c1ccnn1-c1ccc2ccccn12.O=C(O)C(F)(F)F", "Toxoplasma": -6.634, "Leishmania in macrophages": 11.53}
{"compound": "CCc1cnc(CN(C)C2CCN(Cc3nnc(C4CC4)n3C)C2)o1", "stereo": "stereo not given", "Pks13 thioesterase": 2.631, "Toxoplasma": -2.55, "CoaBC": 15.13, "ClpP1P2": -8.41, "Leishmania in macrophages": 20.42, "MtTrpRS": -7.319}
{"compound": "O=C(c1ccc(F)c(F)c1)N1CCCSCC1CN1CCCC1", "stereo": "stereo not given", "Pks13 thioesterase": -6.393, "Toxoplasma": 5.211, "CoaBC": 2.915, "ClpP1P2": -13.43, "Leishmania in macrophages": 0.5361, "MtTrpRS": -0.9923}
{"compound": "Cc1nc(C(=O)N2CCN(S(C)(=O)=O)CC2)c(-c2ccccc2)s1", "Pks13 thioesterase": 12.28, "Toxoplasma": 12.76, "CoaBC": 4.557, "ClpP1P2": -12.86, "Leishmania in macrophages": "-18.33 & 26.76", "MtTrpRS": 3.067}
{"compound": "O=C1CCCN1C1CCCN(CCOc2ccc(F)cc2)C1", "stereo": "stereo not given", "Pks13 thioesterase": 1.75, "Toxoplasma": -1.219, "ClpP1P2": -6.871, "Leishmania in macrophages": -13.49, "MtTrpRS": -1.342}
{"compound": "O=C(NCc1ccco1)[C@@H]1CCO[C@@H]2CCN(C3CCOCC3)C[C@H]21", "Pks13 thioesterase": -3.476, "CoaBC": 3.043, "ClpP1P2": 12.84, "MtTrpRS": -6.494}
{"compound": "O=C(O)C(F)(F)F.[H][C@@]12CCN(Cc3ccc(F)cc3)[C@]1([H])CC[C@@H](C(=O)NCc1ccco1)O2", "Toxoplasma": 4.882, "Leishmania in macrophages": 0.8956}
{"compound": "[H][C@@]12CS(=O)(=O)C[C@]1([H])N(Cc1nc3ccccc3[nH]1)CCN2CC1CC1", "Toxoplasma": -6.944, "Leishmania in macrophages": -19.33}